{"sequences": {"note": "The chains behind the UniProt entries cited, without tags or fusion partners. Where a name states a change or a piece, a line headed by the entry shows the natural chain unless it says otherwise.", "UniProt O15031": "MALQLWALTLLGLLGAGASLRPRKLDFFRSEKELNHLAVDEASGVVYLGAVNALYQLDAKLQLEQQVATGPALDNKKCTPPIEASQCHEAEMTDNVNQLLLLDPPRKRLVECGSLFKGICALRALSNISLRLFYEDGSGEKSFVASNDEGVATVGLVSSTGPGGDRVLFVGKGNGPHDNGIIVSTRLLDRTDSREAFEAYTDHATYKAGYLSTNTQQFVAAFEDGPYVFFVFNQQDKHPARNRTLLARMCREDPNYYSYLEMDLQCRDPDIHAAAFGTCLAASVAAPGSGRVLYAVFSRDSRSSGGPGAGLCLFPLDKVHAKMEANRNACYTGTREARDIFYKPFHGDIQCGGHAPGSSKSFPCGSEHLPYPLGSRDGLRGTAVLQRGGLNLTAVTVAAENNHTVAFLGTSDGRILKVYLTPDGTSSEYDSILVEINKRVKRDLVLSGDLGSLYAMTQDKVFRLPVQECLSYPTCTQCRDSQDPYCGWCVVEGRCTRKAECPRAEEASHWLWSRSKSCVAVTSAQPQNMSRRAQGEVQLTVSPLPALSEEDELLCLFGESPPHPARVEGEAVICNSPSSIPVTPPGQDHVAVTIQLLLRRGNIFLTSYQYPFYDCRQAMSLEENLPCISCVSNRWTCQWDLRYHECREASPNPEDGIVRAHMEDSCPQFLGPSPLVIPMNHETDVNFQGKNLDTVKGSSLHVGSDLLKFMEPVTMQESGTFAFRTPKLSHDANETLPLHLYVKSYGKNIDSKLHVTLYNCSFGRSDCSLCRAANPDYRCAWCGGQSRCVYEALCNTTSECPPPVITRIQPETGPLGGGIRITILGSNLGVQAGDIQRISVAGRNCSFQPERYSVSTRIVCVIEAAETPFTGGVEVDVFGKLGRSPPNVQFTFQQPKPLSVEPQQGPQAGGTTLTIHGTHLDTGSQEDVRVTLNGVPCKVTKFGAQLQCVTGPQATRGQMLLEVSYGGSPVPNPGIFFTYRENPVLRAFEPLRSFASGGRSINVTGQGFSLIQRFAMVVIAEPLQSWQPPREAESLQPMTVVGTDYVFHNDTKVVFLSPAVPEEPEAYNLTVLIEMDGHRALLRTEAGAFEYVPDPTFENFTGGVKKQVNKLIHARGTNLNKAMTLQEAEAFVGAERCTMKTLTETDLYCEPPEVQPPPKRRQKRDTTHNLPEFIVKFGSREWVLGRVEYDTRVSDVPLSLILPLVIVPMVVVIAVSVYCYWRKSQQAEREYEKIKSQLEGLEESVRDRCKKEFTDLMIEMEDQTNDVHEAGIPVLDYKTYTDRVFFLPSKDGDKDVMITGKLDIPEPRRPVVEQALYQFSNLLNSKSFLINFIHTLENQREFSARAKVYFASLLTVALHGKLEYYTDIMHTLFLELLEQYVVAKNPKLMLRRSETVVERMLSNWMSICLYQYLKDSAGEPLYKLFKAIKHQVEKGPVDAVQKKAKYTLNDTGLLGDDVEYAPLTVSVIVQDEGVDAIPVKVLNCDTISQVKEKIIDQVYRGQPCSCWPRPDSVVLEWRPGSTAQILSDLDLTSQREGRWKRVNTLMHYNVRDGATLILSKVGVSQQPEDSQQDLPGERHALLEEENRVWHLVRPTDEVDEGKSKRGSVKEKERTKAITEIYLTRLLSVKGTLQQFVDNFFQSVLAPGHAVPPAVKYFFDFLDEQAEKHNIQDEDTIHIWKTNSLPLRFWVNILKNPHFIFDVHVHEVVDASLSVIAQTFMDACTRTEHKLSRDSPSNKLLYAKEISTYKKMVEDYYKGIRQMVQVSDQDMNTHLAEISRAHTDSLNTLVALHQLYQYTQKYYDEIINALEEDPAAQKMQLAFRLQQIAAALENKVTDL", "UniProt P03950": "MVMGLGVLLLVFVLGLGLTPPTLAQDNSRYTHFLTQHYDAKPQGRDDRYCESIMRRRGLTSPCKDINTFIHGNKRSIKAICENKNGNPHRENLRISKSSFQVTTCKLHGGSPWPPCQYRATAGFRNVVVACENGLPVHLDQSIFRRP"}, "source": "patent US20140105903A1", "about": "(Harvard, published 2014)", "molecular_target": "human Plexin B2 (human) (UniProt O15031)", "experiment": "co-immunoprecipitation and Western blot, ANG-Flag with solubilised LNCaP plasma membrane fraction", "note": "No constants are given. Whether binding was seen depends on the method and setting. In cells and extracts the contact can be indirect. Some entries that bind do so weakly or less than the wild type.", "data": [{"substance": "Flag tagged (C-terminus) ANG (from UniProt P03950 25-147) (ligand)", "values": [{"measurement": "binding", "result": "binds"}]}]}
